# Experimental data: PubChem BioAssay AID1224826 (NIAID, 2016)
# Screen: 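Genes that change LPS-induced Tnf promoter activity in mouse macrophages when knocked down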 (primary screen)
# Cell system: RAW264.7 G9 macrophages from mouse bearing reporters for p65 (GFP) and the Tnf promoter (mCherry)
# Reagent: siRNA pool against mouse genes, 100 nM
# Timing: 16 h of LPS stimulation, after 2 days of siRNA transfection
# Conditions: bacterial lipopolysaccharide (Salmonella minnesota R595), 10 ng/ml
# Read-out: 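Imaged Tnf reporter mCherry in nuclei, minus background, normalised per plate to the median and expressed as robust z-scores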
# Reading the numbers: Tnf reporter robust z-score: higher = stronger Tnf promoter reporter signal after LPS; Tnf reporter intensity: higher = stronger Tnf promoter reporter signal
# Call rule: 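Called active when robust z-score is at most -1.3, matching the median of the Tlr4 knock-down control, or over 3; control wells and wells with under 50 cells never active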
# Calls: active = Tnf reporter clearly lowered or raised; inactive = no clear change in Tnf reporter
# The deposit covers about 17,000 reagents; below is a part drawn at random. About 1,110 of them (6.6%) count as active. 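Active means lowered or raised reporter signal; replicate intensities are raw and not normalised per plate.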
target,Tnf reporter robust z-score,fewer than 50 cells in well,"Tnf reporter intensity, replicate 1","Tnf reporter intensity, replicate 2",Call
Npy5r,2.17,enough cells in well,355,186,inactive
Map1lc3b,-0.83,enough cells in well,142,101,inactive
Flot2,-1.31,enough cells in well,167,57.6,active
Klk10,-0.03,enough cells in well,94.4,61.3,inactive
Cabp1,0,enough cells in well,133,179,inactive
Sned1,2.08,enough cells in well,114,159,inactive
Tcl1,0.34,enough cells in well,249,156,inactive
Nkiras1,0.72,enough cells in well,302,224,inactive
Emd,0.61,enough cells in well,237,320,inactive
Enpp5,-0.36,enough cells in well,198,206,inactive
Hoxc10,-0.68,enough cells in well,176,151,inactive
Pcdhb19,0.38,enough cells in well,270,206,inactive
Nudt14,-0.83,enough cells in well,136,107,inactive
Thap7,3.77,enough cells in well,270,209,active
Kctd7,0.37,enough cells in well,234,136,inactive
Aste1,0.36,enough cells in well,306,83.5,inactive
Evc2,-0.3,enough cells in well,206,207,inactive
Hmbs,-0.92,enough cells in well,201,129,inactive
Or4c127,-0.65,enough cells in well,145,84.8,inactive
Ptdss1,-1.44,enough cells in well,136,90.7,active
Entpd6,2.48,enough cells in well,433,265,inactive
Rab3b,-0.55,enough cells in well,227,184,inactive
Miso1,-0.68,enough cells in well,161,77.7,inactive
Or5p80,,fewer than 50 cells per well; well left out of calls,65,40.5,inactive
Calm4,-1.82,enough cells in well,54.6,64.7,active
Polr1d,-0.23,enough cells in well,128,108,inactive
Khsrp,0.96,enough cells in well,277,228,inactive
Krtcap3,0.02,enough cells in well,244,97.9,inactive
Or13a22,0.04,enough cells in well,123,89.7,inactive
Zfp652,-0.43,enough cells in well,147,169,inactive

Next part, starting with the last 4 of the part before.
target,Tnf reporter robust z-score,fewer than 50 cells in well,"Tnf reporter intensity, replicate 1","Tnf reporter intensity, replicate 2",Call
Khsrp,0.96,enough cells in well,277,228,inactive
Krtcap3,0.02,enough cells in well,244,97.9,inactive
Or13a22,0.04,enough cells in well,123,89.7,inactive
Zfp652,-0.43,enough cells in well,147,169,inactive
Gcdh,-0.1,enough cells in well,249,227,inactive
Magi1,2.68,enough cells in well,257,335,inactive
Trip12,-1.27,enough cells in well,159,124,inactive
Mast2,0.35,enough cells in well,201,196,inactive
Mrps21,0.06,enough cells in well,229,110,inactive
Slitrk4,-1.07,enough cells in well,70.6,43,inactive
Slc37a2,-0.9,enough cells in well,72,81.4,inactive
Armh3,-0.13,enough cells in well,184,167,inactive
Ung,-0.16,enough cells in well,232,200,inactive
Blmh,-1.07,enough cells in well,76.6,125,inactive
Myh11,-0.56,enough cells in well,241,145,inactive
Mtch1,-0.92,enough cells in well,199,128,inactive
Bcl3,-0.62,enough cells in well,97.9,151,inactive
Fkbp3,2.01,enough cells in well,431,395,inactive
Commd4,-0.24,enough cells in well,194,137,inactive
Mif,-0.15,enough cells in well,267,182,inactive
Irf4,0.18,enough cells in well,217,186,inactive
Adam32,-0.85,enough cells in well,125,114,inactive
Rps27a,,fewer than 50 cells per well; well left out of calls,43.1,36.7,inactive
Golph3,1.16,enough cells in well,330,237,inactive
Meox2,-0.41,enough cells in well,225,179,inactive
Tas2r134,,fewer than 50 cells per well; well left out of calls,101,64.3,inactive
Tex19.1,,fewer than 50 cells per well; well left out of calls,55.4,68.7,inactive
Josd1,-0.14,enough cells in well,269,39.2,inactive
Cdkl4,1.69,enough cells in well,307,253,inactive
Cysltr1,0.9,enough cells in well,248,441,inactive
Zc3hc1,0.01,enough cells in well,206,137,inactive
Ndufaf3,,fewer than 50 cells per well; well left out of calls,143,70.7,inactive
